PubChem BioAssay AID504764 – Drosophila RNAi Screening Center | 2011
Test: 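Genes whose knock-down alters Notch-dependent transcription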 (primary screen). System: Drosophila Kc167 cells. Knock-down reagent: long dsRNA against Drosophila genes. Time to read-out: about 5 days (4 days dsRNA, then 24 h after transfection). Treatment: transfection of constitutively active membrane-tethered Notch lacking the extracellular domain, read 24 h later. Measured: 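Light from a Notch-responsive E(spl)m3 luciferase reporter under active Notch, with control-promoter and no-Notch reporter wells to normalise; raw counts from paired wells a and b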. Scale: induced reporter light, run 1, well a and induced reporter light, run 1, well b: higher = more light from the Notch target reporter with active Notch; control promoter light, run 1, well a and control promoter light, run 1, well b: higher = more light from the viral control promoter (cell number, transfection, viability); uninduced reporter light, run 1, well a: higher = more light from the Notch target reporter without active Notch. Active means: 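Wells with low control signal or poorly matching duplicates excluded; duplicates averaged; per source plate, z beyond ±2 for induced/control log2 ratio or beyond ±1.8 for induced/uninduced marks a hit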. Meaning of the calls: active = modifier hit (raised or lowered Notch signal); inactive = not a hit.
In all, the deposit lists about 22,000 reagents; this is a random part of those that have a named target and a result. Over the whole deposit, 403 (1.9%) got an active call. 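Unnormalised raw counts per well; ratio z-scores behind the hit calls and whether each hit raises or lowers signal are not deposited.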 Names joined by + are all predicted targets of the reagent. No sequences are given here. Not stated in the record: the amount of reagent.

target	PubChem SID	induced reporter light, run 1, well a	induced reporter light, run 1, well b	control promoter light, run 1, well a	control promoter light, run 1, well b	uninduced reporter light, run 1, well a	call
D2hgdh (GeneID 31184)	SID104198369	1.59e5	1.67e5	2.14e5	2.28e5	11150	inactive
CG15375 (GeneID 31356)	SID104197837	1.34e5	1.49e5	2.48e5	2.94e5	11540	inactive
Pex1 (GeneID 45460)	SID104191150	77050	75510	62825	76390	6130	inactive
CG13999 (GeneID 33826)	SID104182123	1.62e5	1.40e5	1.72e5	1.67e5	11115	inactive
CG11893 (GeneID 43056)	SID104194221	1.36e5	1.67e5	2.12e5	1.91e5	14095	inactive
CheA46a (GeneID 3772338)	SID104184976	62605	63575	69420	1.05e5	3555	inactive
Spc25 (GeneID 41585)	SID104193956	2.31e5	2.41e5	1.97e5	2.14e5	17400	inactive
DIP-delta (GeneID 5740816)	SID104190006	2.78e5	2.28e5	4.14e5	2.60e5	12780	inactive
DIP-delta (GeneID 5740816)	SID104190242	3.07e5	2.10e5	3.20e5	3.08e5	11420	inactive
CG1850 (GeneID 35647)	SID104186554	2.00e5	1.59e5	2.25e5	1.95e5	13725	inactive
Crys (GeneID 34604)	SID104183086	1.66e5	1.91e5	1.39e5	1.64e5	13485	inactive
CG11353 (GeneID 38560)	SID104187974	99850	1.20e5	1.10e5	52600	11665	inactive
CG42541 (GeneID 31344)	SID104197765	1.44e5	1.33e5	2.65e5	2.44e5	10575	inactive
CG42541 (GeneID 31344)	SID104197911	7660	7140	12435	12350	2685	inactive
CG42541 (GeneID 31344)	SID104197912	1.74e5	1.55e5	3.39e5	2.60e5	12182	inactive
didum (GeneID 35680)	SID104187395	2.17e5	2.19e5	2.66e5	2.43e5	17670	inactive
Mdr65 (GeneID 38726)	SID104191012	3.51e5	2.05e5	2.67e5	2.44e5	11345	inactive
RpL3 + CG6693	SID104195889	1.79e5	1.88e5	1.38e5	1.36e5	13490	inactive
chm (GeneID 43928)	SID104183133	1.30e5	1.49e5	1.49e5	1.25e5	14788	inactive
igl (GeneID 36681)	SID104187423	57875	1.20e5	2.01e5	3.15e5	10660	inactive
geko (GeneID 50263)	SID104189836	2.09e5	1.70e5	2.64e5	1.75e5	8990	inactive
geko (GeneID 50263)	SID104189837	1.62e5	2.13e5	2.31e5	1.95e5	8360	inactive
Try29F (GeneID 34226)	SID104183258	1.58e5	1.39e5	88030	1.12e5	21920	inactive
E(spl)m4-BFM (GeneID 43157)	SID104196784	1.76e5	1.66e5	1.43e5	1.63e5	13510	inactive
CG6220 (GeneID 36520)	SID104186761	98460	94715	1.31e5	1.28e5	10520	inactive
ko (GeneID 40330)	SID104191685	1.16e5	83620	1.07e5	93565	10505	inactive
robl (GeneID 36963)	SID104187466	1.29e5	1.39e5	1.79e5	1.19e5	11075	inactive
CG2841 (GeneID 44529)	SID104197491	72165	80750	1.02e5	89790	4960	inactive
CG2841 (GeneID 44529)	SID104198616	1.03e5	1.15e5	1.91e5	1.74e5	7610	inactive
RpS10a (GeneID 43321)	SID104193953	1.51e5	1.77e5	2.10e5	2.06e5	12410	inactive
Cdk4 (GeneID 36854)	SID104187150	98935	1.14e5	1.84e5	1.81e5	8000	inactive
Alk (GeneID 53425)	SID104185710	1.31e5	89660	98100	1.17e5	16155	inactive
rho-5 (GeneID 2768944)	SID104182639	1.26e5	1.54e5	70450	93825	17490	inactive
ath (GeneID 34357)	SID104182580	92205	1.31e5	71820	87840	14260	inactive
CG16879 (retired record) (GeneID 34827)	SID104181710	2.05e5	1.73e5	1.60e5	1.54e5	16615	inactive
Uggt (GeneID 40055)	SID104191107	1.48e5	1.14e5	71755	80185	10085	inactive
Fur1 (GeneID 47220)	SID104193499	2.58e5	2.26e5	2.26e5	2.50e5	18655	inactive
Fur1 (GeneID 47220)	SID104196468	2.18e5	2.67e5	2.96e5	3.01e5	14920	inactive
Paris (GeneID 33657)	SID104180243	91965	1.75e5	2.13e5	2.47e5	14875	inactive
Atg3 (GeneID 40044)	SID104190528	1.28e5	1.20e5	75790	92330	9050	inactive
Acp98AB (retired record) (GeneID 44933)	SID104201485						active
CG6793 (GeneID 39369)	SID104190506	1.13e5	1.03e5	1.48e5	1.41e5	8580	inactive
mei-P26 (GeneID 45775)	SID104197527	6715	6200	9585	7182	2910	inactive
CG7720 (GeneID 42257)	SID104196098	2.50e5	2.63e5	2.97e5	3.82e5	19865	inactive
CG7720 (GeneID 42257)	SID104196099	1.92e5	1.49e5	2.92e5	2.96e5	14130	inactive
CG15382 (GeneID 33391)	SID104180189	1.18e5	1.10e5	90470	58350	9385	inactive
CG11951 (GeneID 43463)	SID104194234	1.27e5	1.20e5	2.03e5	1.84e5	11510	inactive
CG2218 (GeneID 43611)	SID104195220	1.91e5	2.46e5	2.86e5	2.53e5	15010	inactive
CG31544 (retired record) (GeneID 318792)	SID104192258	1.40e5	1.60e5	1.27e5	96955	11255	inactive
CG15579 (GeneID 50380)	SID104197859	1.15e5	1.36e5	2.71e5	2.14e5	8630	inactive
CG13047 (GeneID 39790)	SID104189720	1.77e5	1.44e5	2.64e5	2.03e5	7628	inactive
CG11912 (GeneID 33205)	SID104180124	1.72e5	1.94e5	2.05e5	2.30e5	17455	inactive
Cipc (GeneID 43177)	SID104194690	1.71e5	1.72e5	2.57e5	2.42e5	14295	inactive
Cipc (GeneID 43177)	SID104194692	1.62e5	1.40e5	1.90e5	1.92e5	12055	inactive
CG15145 (GeneID 35064)	SID104182238	1.35e5	1.48e5	1.89e5	2.15e5	12978	inactive
CG4949 (GeneID 32691)	SID104199718	2.40e5	1.57e5	1.56e5	1.36e5	13605	inactive
CG15673 (GeneID 37459)	SID104184055	40470	40805	43595	53020	2670	inactive
CG2528 (GeneID 35435)	SID104183516	34200	35580	31620	29125	3282	inactive
CG34175 (GeneID 5740264)	SID104180216	2.57e5	2.41e5	2.19e5	2.36e5	15240	inactive
CG44774 (GeneID 31424)	SID104198134	1.31e5	1.15e5	1.86e5	2.29e5	8105	inactive
Dbp21E2 (GeneID 33254)	SID104180408	1.61e5	2.17e5	1.56e5	1.54e5	17585	inactive
CG3568 (GeneID 31383)	SID104198104	1.54e5	1.33e5	2.35e5	2.41e5	10605	inactive
c12.1 (GeneID 53435)	SID104198542	1.10e5	1.06e5	1.00e5	1.08e5	8675	inactive
Sgt1 (GeneID 40982)	SID104196311	1.30e5	1.22e5	1.12e5	1.07e5	9990	inactive
